Assay [1] concerns the target leptin receptor ObR (mouse (endogenous in GT1-7)) (UniProt P48356). Briefly: co-IP; GT1-7 cell extracts, cells transfected with control siRNA or LRP1-specific siRNA for 48 h; immunoprecipitated with control or anti-ObR antibody, blotted for JAK2 (also anti-JAK2 precipitate blotted for ObR, with blocking peptide control).
Assay [2] concerns the target HA-ObRb (UniProt P48356). Briefly: co-IP; GT1-7 cells transiently transfected with HA-ObRb for 48 h, serum-starved overnight, treated with 50 nM leptin or vehicle for 30 min; extracts immunoprecipitated with anti-HA antibody, blotted for JAK2.
In assay [3] the target is LDL receptor (LDLR) (mouse (endogenous in GT1-7)) (UniProt P35951). Briefly: cross-linking; 125I-leptin incubated with GT1-7 cells (untransfected, or transfected with HA-ObR) for 1 h at 4°C, chemical cross-linking, immunoprecipitation with antibodies (with antigen blocking controls), SDS-PAGE; only the binder purified.
Assay [4] deals with leptin receptor ObR (mouse (endogenous in GT1-7)) (UniProt P48356). Described as above.
Assay [5] concerns the target HA-ObRb (UniProt P48356). Described as above.

Sequences of proteins named here, by UniProt entry; tags and fusion partners are left off. Residues count along the entry.
UniProt P48356, residues 22-1162: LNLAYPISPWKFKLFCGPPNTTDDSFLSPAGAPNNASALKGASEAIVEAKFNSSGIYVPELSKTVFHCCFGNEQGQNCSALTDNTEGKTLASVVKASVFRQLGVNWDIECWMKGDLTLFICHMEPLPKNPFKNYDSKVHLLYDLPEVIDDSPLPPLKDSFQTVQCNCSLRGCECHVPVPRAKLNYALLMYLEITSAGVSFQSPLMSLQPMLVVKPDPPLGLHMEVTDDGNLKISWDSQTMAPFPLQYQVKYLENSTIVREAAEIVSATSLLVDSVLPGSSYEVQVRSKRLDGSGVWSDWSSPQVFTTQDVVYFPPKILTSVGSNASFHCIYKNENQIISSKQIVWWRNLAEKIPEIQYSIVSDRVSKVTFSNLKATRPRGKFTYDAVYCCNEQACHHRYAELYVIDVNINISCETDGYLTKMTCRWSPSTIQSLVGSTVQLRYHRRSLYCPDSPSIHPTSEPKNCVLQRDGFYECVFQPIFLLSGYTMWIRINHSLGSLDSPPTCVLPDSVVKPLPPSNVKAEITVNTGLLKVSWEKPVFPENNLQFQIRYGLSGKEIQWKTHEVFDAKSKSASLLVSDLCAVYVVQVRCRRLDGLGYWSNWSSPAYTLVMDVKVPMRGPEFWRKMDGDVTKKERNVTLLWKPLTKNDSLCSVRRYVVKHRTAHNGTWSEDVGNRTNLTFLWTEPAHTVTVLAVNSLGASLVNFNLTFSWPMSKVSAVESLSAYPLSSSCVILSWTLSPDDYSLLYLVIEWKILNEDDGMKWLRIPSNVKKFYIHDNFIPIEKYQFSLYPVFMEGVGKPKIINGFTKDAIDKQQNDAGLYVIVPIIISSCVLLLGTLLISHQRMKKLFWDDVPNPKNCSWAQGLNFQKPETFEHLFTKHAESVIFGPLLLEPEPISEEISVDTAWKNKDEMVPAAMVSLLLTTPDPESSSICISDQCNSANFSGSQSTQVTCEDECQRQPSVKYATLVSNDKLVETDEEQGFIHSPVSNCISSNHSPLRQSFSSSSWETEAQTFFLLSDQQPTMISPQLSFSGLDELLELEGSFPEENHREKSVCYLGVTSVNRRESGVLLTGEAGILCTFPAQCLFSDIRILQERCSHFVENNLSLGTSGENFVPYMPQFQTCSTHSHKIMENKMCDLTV
UniProt P35951, residues 22-862: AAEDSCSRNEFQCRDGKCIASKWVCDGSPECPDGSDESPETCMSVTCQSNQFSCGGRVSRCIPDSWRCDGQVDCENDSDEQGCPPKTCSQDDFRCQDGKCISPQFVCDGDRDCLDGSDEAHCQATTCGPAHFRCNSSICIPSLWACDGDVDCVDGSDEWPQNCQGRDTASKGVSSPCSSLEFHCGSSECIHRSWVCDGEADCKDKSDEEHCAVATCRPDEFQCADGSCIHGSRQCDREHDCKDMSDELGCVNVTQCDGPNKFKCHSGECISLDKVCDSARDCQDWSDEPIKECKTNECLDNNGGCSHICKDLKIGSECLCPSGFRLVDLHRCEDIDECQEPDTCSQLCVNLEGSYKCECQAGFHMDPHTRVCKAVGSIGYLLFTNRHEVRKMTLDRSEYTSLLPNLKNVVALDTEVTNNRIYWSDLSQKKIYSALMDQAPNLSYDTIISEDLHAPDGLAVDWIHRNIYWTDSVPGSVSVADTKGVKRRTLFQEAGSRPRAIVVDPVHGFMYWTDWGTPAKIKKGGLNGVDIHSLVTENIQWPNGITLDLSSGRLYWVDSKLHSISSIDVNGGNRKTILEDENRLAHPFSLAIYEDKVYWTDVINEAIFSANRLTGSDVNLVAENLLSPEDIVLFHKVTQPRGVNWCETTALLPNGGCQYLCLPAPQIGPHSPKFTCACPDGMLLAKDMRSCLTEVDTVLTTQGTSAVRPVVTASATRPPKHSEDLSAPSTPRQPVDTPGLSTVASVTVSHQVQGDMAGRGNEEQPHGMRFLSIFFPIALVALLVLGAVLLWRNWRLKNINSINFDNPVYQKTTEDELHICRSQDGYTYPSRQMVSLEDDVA
UniProt Q62120: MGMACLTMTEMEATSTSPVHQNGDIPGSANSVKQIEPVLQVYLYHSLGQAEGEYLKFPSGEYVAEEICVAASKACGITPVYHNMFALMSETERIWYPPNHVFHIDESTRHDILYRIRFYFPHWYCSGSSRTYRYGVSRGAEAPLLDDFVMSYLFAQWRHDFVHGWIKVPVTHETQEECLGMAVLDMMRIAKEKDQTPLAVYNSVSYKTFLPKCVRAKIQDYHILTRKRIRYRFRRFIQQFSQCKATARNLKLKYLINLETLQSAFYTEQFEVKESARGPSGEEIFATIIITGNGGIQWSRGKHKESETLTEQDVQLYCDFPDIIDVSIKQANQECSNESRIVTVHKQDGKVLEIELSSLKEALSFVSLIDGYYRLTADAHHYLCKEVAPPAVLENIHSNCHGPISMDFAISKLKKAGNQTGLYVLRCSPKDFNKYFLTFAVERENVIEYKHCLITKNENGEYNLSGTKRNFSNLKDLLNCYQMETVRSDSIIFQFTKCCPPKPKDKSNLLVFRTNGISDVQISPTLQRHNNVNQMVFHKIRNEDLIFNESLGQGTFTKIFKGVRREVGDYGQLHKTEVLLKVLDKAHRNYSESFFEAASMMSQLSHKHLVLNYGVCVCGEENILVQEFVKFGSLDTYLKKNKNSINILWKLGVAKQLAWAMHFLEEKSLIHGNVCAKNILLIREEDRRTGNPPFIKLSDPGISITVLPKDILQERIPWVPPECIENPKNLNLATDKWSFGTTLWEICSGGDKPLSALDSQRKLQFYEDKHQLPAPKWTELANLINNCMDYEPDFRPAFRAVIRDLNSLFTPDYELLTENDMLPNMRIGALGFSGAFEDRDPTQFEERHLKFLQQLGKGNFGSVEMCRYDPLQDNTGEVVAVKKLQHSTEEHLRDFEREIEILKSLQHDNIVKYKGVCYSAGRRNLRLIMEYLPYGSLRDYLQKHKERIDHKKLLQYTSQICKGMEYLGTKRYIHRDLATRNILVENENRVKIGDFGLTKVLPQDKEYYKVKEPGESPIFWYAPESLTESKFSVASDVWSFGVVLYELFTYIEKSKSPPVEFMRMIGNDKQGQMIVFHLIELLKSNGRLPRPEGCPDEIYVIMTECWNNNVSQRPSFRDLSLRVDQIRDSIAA
UniProt P41160, residues 22-167: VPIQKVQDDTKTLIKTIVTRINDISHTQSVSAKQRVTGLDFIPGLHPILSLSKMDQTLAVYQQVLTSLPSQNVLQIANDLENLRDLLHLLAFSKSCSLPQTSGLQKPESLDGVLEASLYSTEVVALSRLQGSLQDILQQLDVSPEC

No constants are given. Whether binding was seen depends on the method and setting. Binding seen in cells or lysates may run through a third protein. Some entries that bind do so weakly or less than the wild type.

For the substance “janus kinase 2 (JAK2) (from UniProt Q62120 1-1132) (enzyme)”, the binding entry in assay [1] and in assay [2] was “binds” each time.

As to “recombinant mouse leptin (from UniProt P41160 22-167) (ligand)”, the binding result is “no binding” in assay [3], “binds” in assay [4] and “binds” in assay [5].

For the origin of these results see article PMC3019112.
